Experimental data as given in patent EP4389762A1, “INHIBITORS OF DUX4 ACTIVITY AND THEIR USE IN THERAPY” (Ospedale San Raffaele S.r.l., priority 2022, dated 2024).
These are yes or no findings as the source states them, for the method shown. In cells and extracts the contact can be indirect. Some results given as binding are weak or reduced against the parent protein; the word gives no strength. Values belong to the binder of their own block, whether it stands above or below them.

Amino acid sequences for entries named in this document (tags omitted). Residues count along the entry.
UniProt Q9UBX2, residues 1-159: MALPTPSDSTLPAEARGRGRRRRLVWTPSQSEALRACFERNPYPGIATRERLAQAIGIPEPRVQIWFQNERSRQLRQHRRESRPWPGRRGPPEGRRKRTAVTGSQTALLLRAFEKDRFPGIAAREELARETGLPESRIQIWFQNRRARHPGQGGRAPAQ

Legend:
6xHis-DUX4 dbd [1] = molecular target: T1, 6xHis-DUX4 dbd (UniProt Q9UBX2 1-159); assay: His pull-down, 6xHis-DUX4 dbd on nickel beads, biotinylated peptide detected with streptavidin
T1 construct: range 1-159; Expressed in E. coli from pET-GB1 and purified on nickel beads; The limits 1-159 come from the phrase pETGB1-6xHis-DUX4 dbd (residues 1-159); also called DUX4 dbd (HD1+HD2); not shown: 6xHis tag and GB1 solubility peptide of vector pET-GB1

6xHis-DUX4 dbd [2] = molecular target: T1, 6xHis-DUX4 dbd; assay: His pull-down, 6xHis-DUX4 dbd on nickel beads, biotinylated peptide detected with streptavidin (Figure 12 legend)

binding (6xHis-DUX4 dbd [1]): binds
binding (6xHis-DUX4 dbd [2]): binds
B1: Peptide 2 (aa. 188-248 of MATR3), biotinylated synthetic peptide (peptide)
peptide: SFDDRGPSLNPVLDYDHGSRSQESGYYDRMDYEDDRLRDGERCRDDSFFGETSHNYHKFDS
modifications: N-terminal biotin; C-terminal amide (-NH2)

binding (6xHis-DUX4 dbd [1]): binds
binding (6xHis-DUX4 dbd [2]): binds
B2: Peptide 3 (aa. 228-287 of MATR3), biotinylated synthetic peptide (peptide)
peptide: ERCRDDSFFGETSHNYHKFDSEYERMGRGPGPLQERSLFEKKRGAPPSSNIEDFHGLLPK
modifications: N-terminal biotin; C-terminal amide (-NH2)
